A: 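Enzyme assay of CoaBC with a phosphate dye (Biomol Green) read at 650 nm. Target: Coenzyme A biosynthesis protein CoaBC, Mycobacterium tuberculosis (UniProt P9WNZ1). Compounds at 30 µM. Direction is inferred from only a few compounds that gave an IC50; most scored high, so higher reads as stronger inhibition. Most strong results did not repeat in a second test. About 67,000 compounds were tested under these conditions; 0.06% (about 40) showed 50% or more at least once.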
B: 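Tryptophan-tRNA ligase, Mycobacterium tuberculosis (UniProt P9WFT3). Enzyme assay of tryptophanyl-tRNA synthetase; the read-out is not stated. Tested at 10 µM. Higher most likely means stronger inhibition; the record gives no direction and few retests gave an IC50. Size under these conditions: about 65,000 compounds, about 64 of them at 50% or above in at least one test.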

By UniProt entry, the sequences of proteins in these tests, tags left out.
UniProt P9WNZ1, whole entry: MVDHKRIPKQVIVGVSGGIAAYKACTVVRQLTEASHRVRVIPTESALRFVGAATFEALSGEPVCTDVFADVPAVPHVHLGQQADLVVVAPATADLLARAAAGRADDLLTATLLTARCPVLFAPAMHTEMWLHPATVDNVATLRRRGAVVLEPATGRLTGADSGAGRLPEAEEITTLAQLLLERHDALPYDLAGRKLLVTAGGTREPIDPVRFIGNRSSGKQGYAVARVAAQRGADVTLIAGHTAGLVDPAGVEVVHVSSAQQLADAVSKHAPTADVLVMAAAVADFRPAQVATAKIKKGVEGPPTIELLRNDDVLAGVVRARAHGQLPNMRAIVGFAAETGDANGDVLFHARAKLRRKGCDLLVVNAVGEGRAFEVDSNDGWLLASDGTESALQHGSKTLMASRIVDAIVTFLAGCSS
UniProt P9WFT3, whole entry: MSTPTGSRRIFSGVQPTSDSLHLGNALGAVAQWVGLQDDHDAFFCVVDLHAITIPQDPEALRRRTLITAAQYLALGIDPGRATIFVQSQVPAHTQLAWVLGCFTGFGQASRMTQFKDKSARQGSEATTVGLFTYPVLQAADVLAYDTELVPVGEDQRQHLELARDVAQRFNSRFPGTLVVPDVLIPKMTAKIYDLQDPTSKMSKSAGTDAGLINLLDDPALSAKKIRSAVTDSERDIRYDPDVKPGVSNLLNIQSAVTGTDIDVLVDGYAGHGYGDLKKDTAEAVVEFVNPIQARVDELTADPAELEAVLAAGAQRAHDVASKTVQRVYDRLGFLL

Each number is a percent effect as filed. The controls that fix the scale are not given in the record; negative values are as filed. This is an unselected part of the compounds tested. Two or more numbers in one place are separate tests of the same structure; such repeats can differ widely.

- Cc1ccc(C(C)C(=O)N2CCCN(Cc3cscn3)CC2)cc1 (configuration not stated) : A: -2.813%; B: -7.072%
- CCC1c2ccsc2CCN1C(=O)NCc1cc[nH]n1 (configuration not stated) : A: 3.368%; B: -1.114%
- COCCNc1ccc(CC2CCCNC2)cn1 (configuration not stated) : A: -4.54%; B: -3.184%
- COc1cccc(N2CCC(CNc3cc(C)nc4ncnn34)C2)c1 (configuration not stated) : A: 11.36%; B: 1.3%
- CN1CC(=O)N(c2cccc(F)c2)CC12CCN(CC1CCOCC1)C2 (configuration not stated) : A: -8.705%; B: 5.444%
- NC(=O)c1cccc2nc([C@H]3CCN(Cc4ccccc4F)C3)[nH]c12 : A: -3.733%; B: 3.127%
- O=C(NCCCNC(=O)c1cccc(O)c1)Nc1ccc(Cl)cc1 : A: -1.564%; B: 8.657%
- CCNc1cc2c(nn1)CCN(C(=O)c1ccnc(C)n1)C2 : A: 2.662%; B: 4.834%
- Cc1cccc(C)c1OC1CN(C(=O)C2CC(=O)N(C(C)(C)C)C2)C1 (configuration not stated) : A: 2.335%; B: 0.08376%
- CCc1noc(CS(=O)(=O)C/C=C/c2ccccc2)n1 : A: 1.709%; B: -4.354%
- Cc1cc(C)cc(-n2ncc3c2CCCC3N)c1 (configuration not stated) : A: 21.35% and -2.116%; B: -0.07127%
- CN(C)c1ncccc1CNS(=O)(=O)c1c(F)cccc1F : A: -5.018%; B: -0.5801%
- O=C(Nc1ccccc1)C1CCN(C(=O)COc2ccccc2F)CC1 : A: 13.89%; B: 9.478%
- COc1ccc2c(ccn2CCC(=O)O)c1 : A: 0.9421%; B: 7.839%
- Cc1ccc(-c2csc(N)c2C#N)c(C)c1 : A: -1.515%; B: -1.331%
- CN1CCN(C(=O)c2cc3sccc3n2Cc2ccccc2Cl)CC1 : A: 1.179%; B: -0.154%
- Cc1ncc(CN2CCN(C(=O)C3CCC3)[C@@H]3CS(=O)(=O)C[C@@H]32)cn1 : A: 2.309%; B: 0.1608%
- O=C(C1CC(=O)N(c2ccccc2Br)C1)N1CCN(CC(F)(F)F)CC1 (configuration not stated) : A: -1.873%; B: 1.876%
- Oc1cc(CN2CCCCC2c2cccnc2)nc2c(F)cccc12 (configuration not stated) : A: -3.194%; B: 0.9709%
- O=C(C1CC12CCC2)N1CCC(n2cc(-c3ccsc3)nn2)CC1 (configuration not stated) : A: -3.075%; B: 4.755%
- CN(CCO)Cc1nnc(C2CCN(C(=O)C(C)(C)C)CC2)n1C : A: -5.357%; B: -3.02%
- O=C(c1ccnc(C2CCNCC2)c1)N1CCCOCC1 : A: 4.338%; B: -1.76%
- Cc1cc(C)n2cc(CN3CCCC3Cn3nc(C)nc3C)nc2n1 (configuration not stated) : A: 7.432%; B: 3.463%
- CN(C)Cc1csc(-c2nccn2CCc2cccnc2)c1 : A: -4.435%; B: -3.43%
- Cn1nc(C2CCCN(C(=O)CO)C2)cc1O (configuration not stated) : A: -0.5556%; B: 3.094%
- O=C(NCCCn1ccnn1)C1CCCN(C2CCCC2)C1 (configuration not stated) : A: 8.657%; B: -0.7098%
- COCCCNC(=O)c1c(-n2cnnn2)sc2c1CCC2 : A: 5.696%; B: 2.847%
- Cc1ccc(OCCN(C)Cc2nc3c(cnn3C)c(=O)[nH]2)cc1 : A: 4.47%; B: -2.568%
- COc1nn(C)cc1C(=O)NCC(=O)Nc1cccnc1 : A: 2.326%; B: -5.851%

Some entries from above, unchanged:

O=C(C1CC12CCC2)N1CCC(n2cc(-c3ccsc3)nn2)CC1 (configuration not stated) gave A: -3.075%; B: 4.755%.
CN(CCO)Cc1nnc(C2CCN(C(=O)C(C)(C)C)CC2)n1C gave A: -5.357%; B: -3.02%.
COc1cccc(N2CCC(CNc3cc(C)nc4ncnn34)C2)c1 (configuration not stated) gave A: 11.36%; B: 1.3%.

Source: ChEMBL document CHEMBL3988442, “University of Dundee, Small-Polar-MMV Screening Library” (2021).